The labels stand for the following.
T1: GFP–PWWP2A (human) (UniProt Q96N64)
T1 sequence: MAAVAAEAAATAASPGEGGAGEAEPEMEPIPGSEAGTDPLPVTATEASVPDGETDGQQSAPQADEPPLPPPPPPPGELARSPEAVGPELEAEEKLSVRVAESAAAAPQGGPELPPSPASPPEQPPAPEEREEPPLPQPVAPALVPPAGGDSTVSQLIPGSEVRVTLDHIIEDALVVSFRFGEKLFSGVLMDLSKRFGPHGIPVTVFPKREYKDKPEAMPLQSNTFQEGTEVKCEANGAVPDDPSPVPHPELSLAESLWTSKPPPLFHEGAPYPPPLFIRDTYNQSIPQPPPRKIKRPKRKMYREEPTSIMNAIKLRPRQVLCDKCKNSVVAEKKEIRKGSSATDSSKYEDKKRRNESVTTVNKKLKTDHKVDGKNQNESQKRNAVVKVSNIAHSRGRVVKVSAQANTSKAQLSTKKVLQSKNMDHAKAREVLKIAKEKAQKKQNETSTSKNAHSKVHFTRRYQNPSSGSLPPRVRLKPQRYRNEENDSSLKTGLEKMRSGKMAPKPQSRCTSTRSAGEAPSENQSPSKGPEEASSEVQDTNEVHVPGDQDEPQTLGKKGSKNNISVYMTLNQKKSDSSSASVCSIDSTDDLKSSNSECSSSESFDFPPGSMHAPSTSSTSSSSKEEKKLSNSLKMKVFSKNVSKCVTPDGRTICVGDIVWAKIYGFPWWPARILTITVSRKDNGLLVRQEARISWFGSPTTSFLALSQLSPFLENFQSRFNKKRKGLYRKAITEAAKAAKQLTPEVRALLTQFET

Sequences of proteins named here, by UniProt entry; tags and fusion partners are left off.
UniProt Q8WXI9: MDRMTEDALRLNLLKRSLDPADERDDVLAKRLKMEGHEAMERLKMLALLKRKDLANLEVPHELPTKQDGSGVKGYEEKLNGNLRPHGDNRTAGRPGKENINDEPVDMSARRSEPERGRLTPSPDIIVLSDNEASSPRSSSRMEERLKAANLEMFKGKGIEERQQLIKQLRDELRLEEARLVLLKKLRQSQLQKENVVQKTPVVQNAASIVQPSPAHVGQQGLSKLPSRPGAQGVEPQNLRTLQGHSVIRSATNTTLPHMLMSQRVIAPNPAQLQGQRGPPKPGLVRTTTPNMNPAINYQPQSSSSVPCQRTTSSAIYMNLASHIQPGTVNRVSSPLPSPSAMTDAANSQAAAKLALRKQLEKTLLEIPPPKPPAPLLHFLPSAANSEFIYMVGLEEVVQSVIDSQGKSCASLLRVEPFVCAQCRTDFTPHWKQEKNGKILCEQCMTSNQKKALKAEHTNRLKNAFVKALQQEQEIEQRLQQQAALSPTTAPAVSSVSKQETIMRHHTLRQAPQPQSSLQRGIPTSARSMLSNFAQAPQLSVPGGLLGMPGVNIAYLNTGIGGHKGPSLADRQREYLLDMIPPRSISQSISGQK
UniProt Q9UER7: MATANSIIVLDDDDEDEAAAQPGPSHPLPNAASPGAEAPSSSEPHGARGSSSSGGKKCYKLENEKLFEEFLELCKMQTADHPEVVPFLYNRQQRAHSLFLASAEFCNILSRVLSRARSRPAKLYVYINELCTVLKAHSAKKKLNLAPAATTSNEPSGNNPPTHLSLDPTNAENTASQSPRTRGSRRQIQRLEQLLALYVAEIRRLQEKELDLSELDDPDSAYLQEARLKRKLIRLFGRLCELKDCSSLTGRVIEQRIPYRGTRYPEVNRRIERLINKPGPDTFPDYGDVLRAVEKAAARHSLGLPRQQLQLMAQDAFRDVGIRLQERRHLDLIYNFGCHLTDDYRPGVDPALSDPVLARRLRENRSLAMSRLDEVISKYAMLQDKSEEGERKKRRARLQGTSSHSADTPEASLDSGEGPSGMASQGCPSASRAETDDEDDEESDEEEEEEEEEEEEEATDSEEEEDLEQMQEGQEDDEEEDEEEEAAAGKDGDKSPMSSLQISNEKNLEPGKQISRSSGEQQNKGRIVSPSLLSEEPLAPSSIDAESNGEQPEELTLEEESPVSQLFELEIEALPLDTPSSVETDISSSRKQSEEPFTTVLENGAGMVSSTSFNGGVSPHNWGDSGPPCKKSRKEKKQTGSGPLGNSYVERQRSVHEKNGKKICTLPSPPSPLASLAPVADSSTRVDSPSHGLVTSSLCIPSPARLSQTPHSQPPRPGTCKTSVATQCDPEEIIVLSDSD
UniProt Q92769: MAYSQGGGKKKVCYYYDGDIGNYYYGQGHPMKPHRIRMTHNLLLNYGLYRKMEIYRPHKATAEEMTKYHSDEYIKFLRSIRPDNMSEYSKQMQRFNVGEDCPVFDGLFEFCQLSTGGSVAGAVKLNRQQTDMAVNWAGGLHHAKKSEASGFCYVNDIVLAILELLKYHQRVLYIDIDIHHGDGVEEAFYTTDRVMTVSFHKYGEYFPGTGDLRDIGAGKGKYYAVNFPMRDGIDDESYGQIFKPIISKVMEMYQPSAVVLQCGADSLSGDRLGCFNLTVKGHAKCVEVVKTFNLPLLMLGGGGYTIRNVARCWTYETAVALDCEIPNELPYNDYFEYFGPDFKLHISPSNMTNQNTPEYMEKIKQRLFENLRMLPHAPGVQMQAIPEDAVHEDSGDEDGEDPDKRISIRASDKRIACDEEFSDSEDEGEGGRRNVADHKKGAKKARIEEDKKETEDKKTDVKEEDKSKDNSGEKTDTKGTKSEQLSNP
UniProt P46100: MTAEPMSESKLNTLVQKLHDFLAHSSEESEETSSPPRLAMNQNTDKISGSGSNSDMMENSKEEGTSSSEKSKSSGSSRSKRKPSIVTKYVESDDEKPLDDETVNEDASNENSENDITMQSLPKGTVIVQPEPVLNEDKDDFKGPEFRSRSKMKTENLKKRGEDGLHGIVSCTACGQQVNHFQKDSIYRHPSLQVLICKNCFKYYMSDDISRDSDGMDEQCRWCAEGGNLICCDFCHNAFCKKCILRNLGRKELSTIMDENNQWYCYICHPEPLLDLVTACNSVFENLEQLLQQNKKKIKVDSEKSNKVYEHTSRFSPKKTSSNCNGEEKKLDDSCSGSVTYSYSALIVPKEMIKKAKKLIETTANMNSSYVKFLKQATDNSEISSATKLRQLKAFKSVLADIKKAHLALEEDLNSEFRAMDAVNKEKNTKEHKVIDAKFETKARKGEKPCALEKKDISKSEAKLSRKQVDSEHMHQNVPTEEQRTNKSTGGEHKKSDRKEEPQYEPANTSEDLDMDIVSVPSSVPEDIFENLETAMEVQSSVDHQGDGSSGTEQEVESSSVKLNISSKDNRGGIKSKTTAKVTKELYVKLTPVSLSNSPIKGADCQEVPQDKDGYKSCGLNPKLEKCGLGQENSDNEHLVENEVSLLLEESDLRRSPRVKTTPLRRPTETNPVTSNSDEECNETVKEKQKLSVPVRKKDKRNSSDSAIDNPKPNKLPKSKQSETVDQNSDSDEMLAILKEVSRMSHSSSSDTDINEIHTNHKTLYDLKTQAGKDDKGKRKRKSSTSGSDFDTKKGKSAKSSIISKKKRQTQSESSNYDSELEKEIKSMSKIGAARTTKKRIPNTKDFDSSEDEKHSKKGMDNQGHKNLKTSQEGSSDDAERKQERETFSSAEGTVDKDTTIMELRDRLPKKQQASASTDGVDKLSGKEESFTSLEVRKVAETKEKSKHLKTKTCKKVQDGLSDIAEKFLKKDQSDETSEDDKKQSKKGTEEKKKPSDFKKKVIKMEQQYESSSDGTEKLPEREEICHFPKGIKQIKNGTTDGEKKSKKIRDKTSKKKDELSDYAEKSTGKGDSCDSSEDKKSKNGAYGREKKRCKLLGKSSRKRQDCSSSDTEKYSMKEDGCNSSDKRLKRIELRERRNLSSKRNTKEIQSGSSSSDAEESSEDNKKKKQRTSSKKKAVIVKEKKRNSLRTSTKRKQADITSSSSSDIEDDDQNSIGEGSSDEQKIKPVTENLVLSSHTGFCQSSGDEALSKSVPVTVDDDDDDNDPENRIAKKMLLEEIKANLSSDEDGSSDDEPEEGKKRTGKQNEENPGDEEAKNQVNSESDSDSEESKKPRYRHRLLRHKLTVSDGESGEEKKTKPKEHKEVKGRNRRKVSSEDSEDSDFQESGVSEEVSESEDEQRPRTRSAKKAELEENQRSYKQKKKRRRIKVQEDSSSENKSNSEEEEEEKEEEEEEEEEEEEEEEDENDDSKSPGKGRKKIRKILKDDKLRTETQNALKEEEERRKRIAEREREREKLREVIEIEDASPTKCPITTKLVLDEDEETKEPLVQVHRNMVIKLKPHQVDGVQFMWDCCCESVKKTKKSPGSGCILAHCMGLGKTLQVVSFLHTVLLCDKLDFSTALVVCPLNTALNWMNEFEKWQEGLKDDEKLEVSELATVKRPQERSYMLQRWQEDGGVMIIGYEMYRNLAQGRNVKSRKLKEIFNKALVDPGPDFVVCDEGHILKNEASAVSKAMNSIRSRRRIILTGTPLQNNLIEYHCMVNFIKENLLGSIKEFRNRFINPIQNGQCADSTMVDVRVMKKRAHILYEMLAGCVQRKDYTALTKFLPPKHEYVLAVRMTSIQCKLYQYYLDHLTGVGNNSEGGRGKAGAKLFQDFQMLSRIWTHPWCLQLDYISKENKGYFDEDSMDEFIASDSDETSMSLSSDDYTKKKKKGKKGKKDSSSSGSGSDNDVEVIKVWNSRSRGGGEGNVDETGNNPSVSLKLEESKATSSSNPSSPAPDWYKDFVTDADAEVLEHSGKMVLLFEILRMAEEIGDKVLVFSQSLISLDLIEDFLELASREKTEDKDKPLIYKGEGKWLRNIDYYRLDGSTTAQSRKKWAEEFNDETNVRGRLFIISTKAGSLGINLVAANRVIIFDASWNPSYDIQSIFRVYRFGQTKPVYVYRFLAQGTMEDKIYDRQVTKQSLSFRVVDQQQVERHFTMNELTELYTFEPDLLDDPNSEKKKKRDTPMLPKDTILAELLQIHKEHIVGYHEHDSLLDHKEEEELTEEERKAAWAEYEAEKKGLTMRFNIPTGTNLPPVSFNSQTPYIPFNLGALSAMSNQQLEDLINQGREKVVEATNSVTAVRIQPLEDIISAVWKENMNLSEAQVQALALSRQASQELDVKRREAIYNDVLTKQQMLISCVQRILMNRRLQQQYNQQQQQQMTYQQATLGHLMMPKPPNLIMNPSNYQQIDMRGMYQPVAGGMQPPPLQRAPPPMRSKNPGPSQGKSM
UniProt Q12873: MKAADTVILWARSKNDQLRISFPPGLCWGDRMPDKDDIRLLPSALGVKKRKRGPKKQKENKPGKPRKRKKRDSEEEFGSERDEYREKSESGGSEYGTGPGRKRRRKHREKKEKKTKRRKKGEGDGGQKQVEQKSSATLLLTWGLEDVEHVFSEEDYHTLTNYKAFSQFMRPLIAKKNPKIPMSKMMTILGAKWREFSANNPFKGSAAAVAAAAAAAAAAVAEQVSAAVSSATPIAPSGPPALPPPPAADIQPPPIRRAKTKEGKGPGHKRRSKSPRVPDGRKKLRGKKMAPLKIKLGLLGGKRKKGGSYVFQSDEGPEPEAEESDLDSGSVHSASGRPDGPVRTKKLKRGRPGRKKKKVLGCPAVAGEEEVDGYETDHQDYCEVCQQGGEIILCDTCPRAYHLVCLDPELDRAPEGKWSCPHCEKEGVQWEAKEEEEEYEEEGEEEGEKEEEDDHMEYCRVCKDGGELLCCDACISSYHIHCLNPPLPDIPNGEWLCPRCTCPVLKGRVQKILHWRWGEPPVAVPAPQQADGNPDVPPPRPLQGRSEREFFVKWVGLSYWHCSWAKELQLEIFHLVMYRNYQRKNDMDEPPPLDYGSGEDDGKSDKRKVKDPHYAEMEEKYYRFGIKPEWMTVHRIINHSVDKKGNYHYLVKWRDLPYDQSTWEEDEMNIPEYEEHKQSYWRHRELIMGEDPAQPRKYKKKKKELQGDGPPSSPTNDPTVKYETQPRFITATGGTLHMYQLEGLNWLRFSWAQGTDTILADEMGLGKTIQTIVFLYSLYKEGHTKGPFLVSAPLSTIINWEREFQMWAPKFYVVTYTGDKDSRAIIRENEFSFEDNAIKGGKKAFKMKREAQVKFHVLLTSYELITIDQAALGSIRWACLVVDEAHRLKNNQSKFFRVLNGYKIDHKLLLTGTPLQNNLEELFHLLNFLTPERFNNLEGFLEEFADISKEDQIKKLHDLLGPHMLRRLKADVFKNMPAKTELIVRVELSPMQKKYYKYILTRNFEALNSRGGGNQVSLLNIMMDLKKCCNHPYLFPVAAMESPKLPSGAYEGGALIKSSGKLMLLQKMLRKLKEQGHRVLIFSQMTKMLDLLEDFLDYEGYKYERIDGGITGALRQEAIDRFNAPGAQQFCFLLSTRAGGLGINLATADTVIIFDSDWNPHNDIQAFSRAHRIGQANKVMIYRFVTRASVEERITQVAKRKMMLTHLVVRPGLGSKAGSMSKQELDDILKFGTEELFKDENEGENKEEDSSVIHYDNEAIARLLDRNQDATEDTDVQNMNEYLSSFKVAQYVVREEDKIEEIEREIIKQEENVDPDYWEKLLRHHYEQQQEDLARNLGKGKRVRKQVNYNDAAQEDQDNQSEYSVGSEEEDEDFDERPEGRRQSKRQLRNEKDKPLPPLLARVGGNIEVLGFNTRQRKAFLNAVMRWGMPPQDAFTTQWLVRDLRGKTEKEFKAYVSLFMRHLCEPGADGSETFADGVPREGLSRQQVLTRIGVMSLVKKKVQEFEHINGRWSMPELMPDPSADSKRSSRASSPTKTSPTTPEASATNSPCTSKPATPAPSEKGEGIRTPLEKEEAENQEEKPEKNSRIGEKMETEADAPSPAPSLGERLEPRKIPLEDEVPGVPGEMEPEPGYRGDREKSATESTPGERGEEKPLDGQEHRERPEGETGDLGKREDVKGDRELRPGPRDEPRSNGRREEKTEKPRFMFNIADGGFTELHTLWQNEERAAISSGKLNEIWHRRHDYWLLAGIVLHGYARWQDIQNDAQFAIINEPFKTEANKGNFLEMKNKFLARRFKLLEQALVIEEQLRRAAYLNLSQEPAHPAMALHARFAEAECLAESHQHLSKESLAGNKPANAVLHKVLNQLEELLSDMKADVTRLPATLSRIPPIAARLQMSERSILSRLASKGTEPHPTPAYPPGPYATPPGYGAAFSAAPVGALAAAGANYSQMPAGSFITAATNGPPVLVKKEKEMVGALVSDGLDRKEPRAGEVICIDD

B1: ZNF512B (protein, UniProt Q96KM6 1-892)
chain: MTDPFCVGGRRLPGSSKSGPGKDGSRKEVRLPMLHDPPKMGMPVVRGGQTVPGQAPLCFDPGSPASDKTEGKKKGRPKAENQALRDIPLSLMNDWKDEFKAHSRVKCPNSGCWLEFPSIYGLKYHYQRCQGGAISDRLAFPCPFCEAAFTSKTQLEKHRIWNHMDRPLPASKPGPISRPVTISRPVGVSKPIGVSKPVTIGKPVGVSKPIGISKPVSVGRPMPVTKAIPVTRPVPVTKPVTVSRPMPVTKAMPVTKPITVTKSVPVTKPVPVTKPITVTKLVTVTKPVPVTKPVTVSRPIVVSKPVTVSRPIAISRHTPPCKMVLLTRSENKAPRATGRNSGKKRAADSLDTCPIPPKQARPENGEYGPSSMGQSSAFQLSADTSSGSLSPGSRPSGGMEALKAAGPASPPEEDPERTKHRRKQKTPKKFTGEQPSISGTFGLKGLVKAEDKARVHRSKKQEGPGPEDARKKVPAAPITVSKEAPAPVAHPAPGGPEEQWQRAIHERGEAVCPTCNVVTRKTLVGLKKHMEVCQKLQDALKCQHCRKQFKSKAGLNYHTMAEHSAKPSDAEASEGGEQEERERLRKVLKQMGRLRCPQEGCGAAFSSLMGYQYHQRRCGKPPCEVDSPSFPCTHCGKTYRSKAGHDYHVRSEHTAPPPEEPTDKSPEAEDPLGVERTPSGRVRRTSAQVAVFHLQEIAEDELARDWTKRRMKDDLVPETARLNYTRPGLPTLNPQLLEAWKNEVKEKGHVNCPNDCCEAIYSSVSGLKAHLASCSKGAHLAGKYRCLLCPKEFSSESGVKYHILKTHAENWFRTSADPPPKHRSQDSLVPKKEKKKNLAGGKKRGRKPKERTPEEPVAKLPPRRDDWPPGCRDKGARGSTGRKVGVSKAPEK
B2: PWWP2B (protein, UniProt Q6NUJ5 1-590)
chain: MEPRAGCRLPVRVEQVVNGALVVTVSCGERSFAGILLDCTKKSGLFGLPPLAPLPQVDESPVNDSHGRAPEEGDAEVMQLGSSSPPPARGVQPPETTRPEPPPPLVPPLPAGSLPPYPPYFEGAPFPHPLWLRDTYKLWVPQPPPRTIKRTRRRLSRNRDPGRLILSTIRLRPRQVLCEKCKSTLSPPEASPGPPAAPRARRRLGSGPDRELRKPEEPENGEPTAAATARRSKRERREEDRAPAEQVPRSPVIKISYSTPQGKGEVVKIPSRVHGSLEPFRPQQAPQDDGSQDPEVLDRESRDRPSCAPSASIPKLKLTRPVPAGADLPPPKIRLKPHRLGDSEHEPVYRAELVGELNGYLRDSSPAPCADGPAGGLADLSSGSSGEDDDFKSCPQGPQGREGLAFLVSCPEGRADCASESACSSDSLDEARSSGSEGTPADTGDLSPGHGASAPSVSREARQTVPPLTVRLHTQSVSECITEDGRTVAVGDIVWGKIHGFPWWPARVLDISLGQKEDGEPSWREAKVSWFGSPTTSFLSISKLSPFSEFFKLRFNRKKKGMYRKAITEAANAARHVAPEIRELLTQFET
B3: BAHD1 (protein, UniProt Q8TBE0 1-780)
chain: MTHTRRKSLPMLSSGLTGRREPLQMEDSNMEQGVEGVEPGMPESPGHLTGRRKNYPLRKRPLVPEKPKACKVLLTRLENVAGPRSADEADELPPDLPKPPSPAPSSEDPGLAQPRKRRLASLNAEALNNLLLEREDTSSLAGTRRSRAGDPHRSRDRDRATGGWSSSKKRPRLGDLGGGSRDLSPEPAPDEGPRRDGDPAPKRLASLNAAAFLKLSQERELPLRLPRAHAEVDGRSTEPPAPKAPRPKWPKVNGKNYPKAWQGASSGEAAGPPGWQGCPDEPWPSATPCGPSVQPSHQPLSKALESPLGLRPHLPLLMGGQAALKPEPGRPGEESPAPKQELHQPSFPTPQLSPLPMPGNPADYNGLCVGPELTALGSFYLYCGQEGLQCGGYSPCPMLPEGKLSPVAAPHEEGLLLAPSSVPSGTPFQHPPWGSSRYCSSEDTGVNGYSICGVLPLSVTHAGTTCGGCPYKMPFAAEGCRSLGQLEFPLPEAGHPASPAHPLLGCPVPSVPPAAEPVPHLQTPTSEPQTVARACPQSAKPPSGSKSGLRTGSSCRHTARSKAARRPSHPKQPRVQRPRPRRRRRRRTNGWVPVGAACEKAVYVLDEPEPAIRKSYQAVERHGETIRVRDTVLLKSGPRKTSTPYVAKISALWENPESGELMMSLLWYYRPEHLQGGRSPSMHEPLQNEVFASRHQDQNSVACIEEKCYVLTFAEYCRFCAMAKRRGEGLPSRKTALVPPSADYSTPPHRTVPEDTDPELVFLCRHVYDFRHGRILKNPQ
B4: PHF14 (protein, UniProt O94880 1-948)
chain: MDRSSKRRQVKPLAASLLEALDYDSSDDSDFKVGDASDSEGSGNGSEDASKDSGEGSCSDSEENILEEELNEDIKVKEEQLKNSAEEEVLSSEKQLIKMEKKEEEENGERPRKKKEKEKEKEKEKEKEKEREKEKEKATVSENVAASAAATTPATSPPAVNTSPSVPTTTTATEEQVSEPKKWNLRRNRPLLDFVSMEELNDMDDYDSEDDNDWRPTVVKRKGRSASQKEGSDGDNEDDEDEGSGSDEDENDEGNDEDHSSPASEGGCKKKKSKVLSRNSADDEELTNDSLTLSQSKSNEDSLILEKSQNWSSQKMDHILICCVCLGDNSEDADEIIQCDNCGITVHEGCYGVDGESDSIMSSASENSTEPWFCDACKCGVSPSCELCPNQDGIFKETDAGRWVHIVCALYVPGVAFGDIDKLRPVTLTEMNYSKYGAKECSFCEDPRFARTGVCISCDAGMCRAYFHVTCAQKEGLLSEAAAEEDIADPFFAYCKQHADRLDRKWKRKNYLALQSYCKMSLQEREKQLSPEAQARINARLQQYRAKAELARSTRPQAWVPREKLPRPLTSSASAIRKLMRKAELMGISTDIFPVDNSDTSSSVDGRRKHKQPALTADFVNYYFERNMRMIQIQENMAEQKNIKDKLENEQEKLHVEYNKLCESLEELQNLNGKLRSEGQGIWALLGRITGQKLNIPAILRAPKERKPSKKEGGTQKTSTLPAVLYSCGICKKNHDQHLLLLCDTCKLHYHLGCLDPPLTRMPRKTKNSYWQCSECDQAGSSDMEADMAMETLPDGTKRSRRQIKEPVKFVPQDVPPEPKKIPIRNTRTRGRKRSFVPEEEKHEERVPRERRQRQSVLQKKPKAEDLRTECATCKGTGDNENLVRCDECRLCYHFGCLDPPLKKSPKQTGYGWICQECDSSSSKEDENEAERKNISQELNMEQKNPKK
B5: PHF20L1 (protein, UniProt A8MW92 1-1017)
chain: MSKKPPNRPGITFEIGARLEALDYLQKWYPSRIEKIDYEEGKMLVHFERWSHRYDEWIYWDSNRLRPLERPALRKEGLKDEEDFFDFKAGEEVLARWTDCRYYPAKIEAINKEGTFTVQFYDGVIRCLKRMHIKAMPEDAKGQVKSQHPLSWCCPIDPAGSCNQSMGSEDWIALVKAAAAAAAKNKTGSKPRTSANSNKDKDKDERKWFKVPSKKEETSTCIATPDVEKKEDLPTSSETFGLHVENVPKMVFPQPESTLSNKRKNNQGNSFQAKRARLNKITGLLASKAVGVDGAEKKEDYNETAPMLEQAISPKPQSQKKNEADISSSANTQKPALLSSTLSSGKARSKKCKHESGDSSGCIKPPKSPLSPELIQVEDLTLVSQLSSSVINKTSPPQPVNPPRPFKHSERRRRSQRLATLPMPDDSVEKVSSPSPATDGKVFSISSQNQQESSVPEVPDVAHLPLEKLGPCLPLDLSRGSEVTAPVASDSSYRNECPRAEKEDTQMLPNPSSKAIADGRGAPAAAGISKTEKKVKLEDKSSTAFGKRKEKDKERREKRDKDHYRPKQKKKKKKKKKSKQHDYSDYEDSSLEFLERCSSPLTRSSGSSLASRSMFTEKTTTYQYPRAILSVDLSGENLSDVDFLDDSSTESLLLSGDEYNQDFDSTNFEESQDEDDALNEIVRCICEMDEENGFMIQCEECLCWQHSVCMGLLEESIPEQYICYICRDPPGQRWSAKYRYDKEWLNNGRMCGLSFFKENYSHLNAKKIVSTHHLLADVYGVTEVLHGLQLKIGILKNKHHPDLHLWACSGKRKDQDQIIAGVEKKIAQDTVNREEKKYVQNHKEPPRLPLKMEGTYITSEHSYQKPQSFGQDCKSLADPGSSDDDDVSSLEEEQEFHMRSKNSLQYSAKEHGMPEKNPAEGNTVFVYNDKKGTEDPGDSHLQWQLNLLTHIENVQNEVTSRMDLIEKEVDVLESWLDFTGELEPPDPLARLPQLKRHIKQLLIDMGKVQQIATLCSV

These are yes or no findings as the source states them, for the method shown. Binding seen in cells or lysates may run through a third protein. These calls come from enrichment with a bait or labelling near it, and not all partners need be listed. No binding means not detected with the bait. Where a sequence is shown, tags or fusion partners need not be part of it.

The test has as its target T1, GFP–PWWP2A (human). As to the kind of experiment: affinity purification with mass spectrometry; chromatin of HK cells stably expressing GFP or GFP–PWWP2A digested with MNase to mononucleosomes, GFP-TRAP beads, on-bead tryptic digestion, label-free MS/MS.
Take HMG20A (from UniProt Q9NP66 1-347): the binding entry was “binds”.

Consider RAI1 (from UniProt Q7Z5J4 1-1906), for which the binding entry is given as “binds”.

With BRWD3 (from UniProt Q6RI45 1-1802), the binding entry is “binds”.

Consider “CHD5 (from UniProt Q8TDI0 1-1954) (enzyme)”, for which the binding result was “no binding”.

Regarding “CHD4 (from UniProt Q14839 1-1912) (enzyme)”, the binding entry is recorded as “no binding”.

As for GATAD2B (from UniProt Q8WXI9 1-593), the binding result is reported as “no binding”.

As to DAXX (from UniProt Q9UER7 1-740), the binding result is “binds”.

Consider MBD2 (from UniProt Q9UBB5 1-411), for which the binding entry was “no binding”.

With “HDAC2 (from UniProt Q92769 1-488) (enzyme)”, the binding result was “binds”.

Take MDC1 (from UniProt Q14676 1-2089): the binding entry is given as “binds”.

On to ATRX (from UniProt P46100 1-2492), for which the binding entry was “binds”.

In the case of “CHD3 (from UniProt Q12873 1-2000) (enzyme)”, the binding entry is given as “no binding”.

With B1, the binding result is reported as “binds”.

For the molecule B2, the binding entry is reported as “binds”.

Take B3: the binding result is on record as “binds”.

Regarding B4, the binding entry is listed as “binds”.

Regarding B5, the binding result is recorded as “binds”.

Values taken from publication PMC6191444.
